Reference: patent US20170058032A1 (published 2017)
These are yes or no findings as the source states them, for the method shown. Some entries that bind do so weakly or less than the wild type.

Amino acid sequences for entries named in this document (tags omitted). A change or cut given only in a name is not applied to a line headed by its entry.
UniProt P40259: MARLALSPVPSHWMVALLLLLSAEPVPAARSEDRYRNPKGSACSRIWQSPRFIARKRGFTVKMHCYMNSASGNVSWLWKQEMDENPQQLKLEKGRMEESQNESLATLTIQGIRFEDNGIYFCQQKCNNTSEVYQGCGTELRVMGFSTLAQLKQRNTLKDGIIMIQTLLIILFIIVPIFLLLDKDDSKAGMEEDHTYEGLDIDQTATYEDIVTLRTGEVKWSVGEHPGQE

B1: huMA79b graft variant, SEQ ID NO: 98 (D101S) (Fab, name in Kabat numbering, V domains shown)
VH: EVQLVESGGGLVQPGGSLRLSCAASGYTFSSYWIEWVRQAPGKGLEWVGEILPGGGDTNYNEIFKGRFTISADTSKNTAYLQMNSLRAEDTAVYYCTRRVPVYFSYWGQGTLVTVSS
VL: DIQMTQSPSSLSASVGDRVTITCKASQSVDYDGDSFLNWYQQKPGKAPKLLIYAASNLESGVPSRFSGSGSGTDFTLTISSLQPEDFATYYCQQSNEDPLTFGQGTKVEIKR
B2: huMA79b graft variant, SEQ ID NO: 99 (Fab, name in Kabat numbering, V domains shown)
VH: EVQLVESGGGLVQPGGSLRLSCAASGYTFSSYWIEWVRQAPGKGLEWVGEILPGGGDTNYNEIFKGRFTISADTSKNTAYLQMNSLRAEDTAVYYCTRRVPVVLDYWGQGTLVTVSS
VL: DIQMTQSPSSLSASVGDRVTITCKASQSVDYDGDSFLNWYQQKPGKAPKLLIYAASNLESGVPSRFSGSGSGTDFTLTISSLQPEDFATYYCQQSNEDPLTFGQGTKVEIKR
B3: huMA79b graft variant, SEQ ID NO: 100 (Fab, name in Kabat numbering, V domains shown)
VH: EVQLVESGGGLVQPGGSLRLSCAASGYTFSSYWIEWVRQAPGKGLEWVGEILPGGGDTNYNEIFKGRFTISADTSKNTAYLQMNSLRAEDTAVYYCTRRVPVRLDYWGQGTLVTVSS
VL: DIQMTQSPSSLSASVGDRVTITCKASQSVDYDGDSFLNWYQQKPGKAPKLLIYAASNLESGVPSRFSGSGSGTDFTLTISSLQPEDFATYYCQQSNEDPLTFGQGTKVEIKR
B4: huMA79b graft variant, SEQ ID NO: 101 (Y99R) (Fab, name in Kabat numbering, V domains shown)
VH: EVQLVESGGGLVQPGGSLRLSCAASGYTFSSYWIEWVRQAPGKGLEWVGEILPGGGDTNYNEIFKGRFTISADTSKNTAYLQMNSLRAEDTAVYYCTRRVPVRFDYWGQGTLVTVSS
VL: DIQMTQSPSSLSASVGDRVTITCKASQSVDYDGDSFLNWYQQKPGKAPKLLIYAASNLESGVPSRFSGSGSGTDFTLTISSLQPEDFATYYCQQSNEDPLTFGQGTKVEIKR
B5: huMA79b graft variant, SEQ ID NO: 102 (Fab, name in Kabat numbering, V domains shown)
VH: EVQLVESGGGLVQPGGSLRLSCAASGYTFSSYWIEWVRQAPGKGLEWVGEILPGGGDTNYNEIFKGRFTISADTSKNTAYLQMNSLRAEDTAVYYCTRRVPVFLDYWGQGTLVTVSS
VL: DIQMTQSPSSLSASVGDRVTITCKASQSVDYDGDSFLNWYQQKPGKAPKLLIYAASNLESGVPSRFSGSGSGTDFTLTISSLQPEDFATYYCQQSNEDPLTFGQGTKVEIKR
B6: huMA79b graft variant, SEQ ID NO: 105 (Fab, name in Kabat numbering, V domains shown)
VH: EVQLVESGGGLVQPGGSLRLSCAASGYTFSSYWIEWVRQAPGKGLEWVGEILPGGGDTNYNEIFKGRFTISADTSKNTAYLQMNSLRAEDTAVYYCTRRRPVCLDYWGQGTLVTVSS
VL: DIQMTQSPSSLSASVGDRVTITCKASQSVDYDGDSFLNWYQQKPGKAPKLLIYAASNLESGVPSRFSGSGSGTDFTLTISSLQPEDFATYYCQQSNEDPLTFGQGTKVEIKR
B7: huMA79b graft variant, SEQ ID NO: 106 (V96I) (Fab, name in Kabat numbering, V domains shown)
VH: EVQLVESGGGLVQPGGSLRLSCAASGYTFSSYWIEWVRQAPGKGLEWVGEILPGGGDTNYNEIFKGRFTISADTSKNTAYLQMNSLRAEDTAVYYCTRRIPVYFDYWGQGTLVTVSS
VL: DIQMTQSPSSLSASVGDRVTITCKASQSVDYDGDSFLNWYQQKPGKAPKLLIYAASNLESGVPSRFSGSGSGTDFTLTISSLQPEDFATYYCQQSNEDPLTFGQGTKVEIKR
B8: huMA79b graft variant, SEQ ID NO: 37 (Fab, name in Kabat numbering, V domains shown)
VH: EVQLVESGGGLVQPGGSLRLSCAASGYTFSSYWIEWVRQAPGKGLEWVGEILPGGGDTNYNEIFKGRFTISADTSKNTAYLQMNSLRAEDTAVYYCTRRVPVYFDYWGQGTLVTVSS
VL: DIQMTQSPSSLSASVGDRVTITCKASQSVDYDGDSFLNWYQQKPGKAPKLLIYAARYLRRGVPSRFSGSGSGTDFTLTISSLQPEDFATYYCQQSNEDPLTFGQGTKVEIKR
B9: huMA79b graft variant, SEQ ID NO: 38 (Fab, name in Kabat numbering, V domains shown)
VH: EVQLVESGGGLVQPGGSLRLSCAASGYTFSSYWIEWVRQAPGKGLEWVGEILPGGGDTNYNEIFKGRFTISADTSKNTAYLQMNSLRAEDTAVYYCTRRVPVYFDYWGQGTLVTVSS
VL: DIQMTQSPSSLSASVGDRVTITCKASQSVDYDGDSFLNWYQQKPGKAPKLLIYAARRLRTGVPSRFSGSGSGTDFTLTISSLQPEDFATYYCQQSNEDPLTFGQGTKVEIKR
B10: huMA79b graft variant, SEQ ID NO: 39 (Fab, name in Kabat numbering, V domains shown)
VH: EVQLVESGGGLVQPGGSLRLSCAASGYTFSSYWIEWVRQAPGKGLEWVGEILPGGGDTNYNEIFKGRFTISADTSKNTAYLQMNSLRAEDTAVYYCTRRVPVYFDYWGQGTLVTVSS
VL: DIQMTQSPSSLSASVGDRVTITCKASQSVDYDGDSFLNWYQQKPGKAPKLLIYAARRLGRGVPSRFSGSGSGTDFTLTISSLQPEDFATYYCQQSNEDPLTFGQGTKVEIKR
B11: huMA79b graft variant, SEQ ID NO: 40 (Fab, name in Kabat numbering, V domains shown)
VH: EVQLVESGGGLVQPGGSLRLSCAASGYTFSSYWIEWVRQAPGKGLEWVGEILPGGGDTNYNEIFKGRFTISADTSKNTAYLQMNSLRAEDTAVYYCTRRVPVYFDYWGQGTLVTVSS
VL: DIQMTQSPSSLSASVGDRVTITCKASQSVDYDGDSFLNWYQQKPGKAPKLLIYAARQRKRGVPSRFSGSGSGTDFTLTISSLQPEDFATYYCQQSNEDPLTFGQGTKVEIKR
B12: huMA79b graft variant, SEQ ID NO: 41 (Fab, name in Kabat numbering, V domains shown)
VH: EVQLVESGGGLVQPGGSLRLSCAASGYTFSSYWIEWVRQAPGKGLEWVGEILPGGGDTNYNEIFKGRFTISADTSKNTAYLQMNSLRAEDTAVYYCTRRVPVYFDYWGQGTLVTVSS
VL: DIQMTQSPSSLSASVGDRVTITCKASQSVDYDGDSFLNWYQQKPGKAPKLLIYAARKLLRGVPSRFSGSGSGTDFTLTISSLQPEDFATYYCQQSNEDPLTFGQGTKVEIKR
B13: huMA79b graft variant, SEQ ID NO: 42 (Fab, name in Kabat numbering, V domains shown)
VH: EVQLVESGGGLVQPGGSLRLSCAASGYTFSSYWIEWVRQAPGKGLEWVGEILPGGGDTNYNEIFKGRFTISADTSKNTAYLQMNSLRAEDTAVYYCTRRVPVYFDYWGQGTLVTVSS
VL: DIQMTQSPSSLSASVGDRVTITCKASQSVDYDGDSFLNWYQQKPGKAPKLLIYAARKLKNGVPSRFSGSGSGTDFTLTISSLQPEDFATYYCQQSNEDPLTFGQGTKVEIKR
B14: huMA79b graft variant, SEQ ID NO: 43 (Fab, name in Kabat numbering, V domains shown)
VH: EVQLVESGGGLVQPGGSLRLSCAASGYTFSSYWIEWVRQAPGKGLEWVGEILPGGGDTNYNEIFKGRFTISADTSKNTAYLQMNSLRAEDTAVYYCTRRVPVYFDYWGQGTLVTVSS
VL: DIQMTQSPSSLSASVGDRVTITCKASQSVDYDGDSFLNWYQQKPGKAPKLLIYAARKLGTGVPSRFSGSGSGTDFTLTISSLQPEDFATYYCQQSNEDPLTFGQGTKVEIKR
B15: huMA79b graft variant, SEQ ID NO: 44 (Fab, name in Kabat numbering, V domains shown)
VH: EVQLVESGGGLVQPGGSLRLSCAASGYTFSSYWIEWVRQAPGKGLEWVGEILPGGGDTNYNEIFKGRFTISADTSKNTAYLQMNSLRAEDTAVYYCTRRVPVYFDYWGQGTLVTVSS
VL: DIQMTQSPSSLSASVGDRVTITCKASQSVDYDGDSFLNWYQQKPGKAPKLLIYAARKLGGGVPSRFSGSGSGTDFTLTISSLQPEDFATYYCQQSNEDPLTFGQGTKVEIKR
B16: huMA79b graft variant, SEQ ID NO: 45 (Fab, name in Kabat numbering, V domains shown)
VH: EVQLVESGGGLVQPGGSLRLSCAASGYTFSSYWIEWVRQAPGKGLEWVGEILPGGGDTNYNEIFKGRFTISADTSKNTAYLQMNSLRAEDTAVYYCTRRVPVYFDYWGQGTLVTVSS
VL: DIQMTQSPSSLSASVGDRVTITCKASQSVDYDGDSFLNWYQQKPGKAPKLLIYAARKLARGVPSRFSGSGSGTDFTLTISSLQPEDFATYYCQQSNEDPLTFGQGTKVEIKR
B17: huMA79b graft variant, SEQ ID NO: 46 (E93A) (Fab, name in Kabat numbering, V domains shown)
VH: EVQLVESGGGLVQPGGSLRLSCAASGYTFSSYWIEWVRQAPGKGLEWVGEILPGGGDTNYNEIFKGRFTISADTSKNTAYLQMNSLRAEDTAVYYCTRRVPVYFDYWGQGTLVTVSS
VL: DIQMTQSPSSLSASVGDRVTITCKASQSVDYDGDSFLNWYQQKPGKAPKLLIYAASNLESGVPSRFSGSGSGTDFTLTISSLQPEDFATYYCQQSNADPLTFGQGTKVEIKR
B18: huMA79b graft variant, SEQ ID NO: 47 (E93Q) (Fab, name in Kabat numbering, V domains shown)
VH: EVQLVESGGGLVQPGGSLRLSCAASGYTFSSYWIEWVRQAPGKGLEWVGEILPGGGDTNYNEIFKGRFTISADTSKNTAYLQMNSLRAEDTAVYYCTRRVPVYFDYWGQGTLVTVSS
VL: DIQMTQSPSSLSASVGDRVTITCKASQSVDYDGDSFLNWYQQKPGKAPKLLIYAASNLESGVPSRFSGSGSGTDFTLTISSLQPEDFATYYCQQSNQDPLTFGQGTKVEIKR
B19: huMA79b graft variant, SEQ ID NO: 49 (E93D) (Fab, name in Kabat numbering, V domains shown)
VH: EVQLVESGGGLVQPGGSLRLSCAASGYTFSSYWIEWVRQAPGKGLEWVGEILPGGGDTNYNEIFKGRFTISADTSKNTAYLQMNSLRAEDTAVYYCTRRVPVYFDYWGQGTLVTVSS
VL: DIQMTQSPSSLSASVGDRVTITCKASQSVDYDGDSFLNWYQQKPGKAPKLLIYAASNLESGVPSRFSGSGSGTDFTLTISSLQPEDFATYYCQQSNDDPLTFGQGTKVEIKR
B20: huMA79b graft variant, SEQ ID NO: 50 (E93L) (Fab, name in Kabat numbering, V domains shown)
VH: EVQLVESGGGLVQPGGSLRLSCAASGYTFSSYWIEWVRQAPGKGLEWVGEILPGGGDTNYNEIFKGRFTISADTSKNTAYLQMNSLRAEDTAVYYCTRRVPVYFDYWGQGTLVTVSS
VL: DIQMTQSPSSLSASVGDRVTITCKASQSVDYDGDSFLNWYQQKPGKAPKLLIYAASNLESGVPSRFSGSGSGTDFTLTISSLQPEDFATYYCQQSNLDPLTFGQGTKVEIKR
B21: huMA79b graft variant, SEQ ID NO: 51 (Fab, name in Kabat numbering, V domains shown)
VH: EVQLVESGGGLVQPGGSLRLSCAASGYTFSSYWIEWVRQAPGKGLEWVGEILPGGGDTNYNEIFKGRFTISADTSKNTAYLQMNSLRAEDTAVYYCTRRVPVYFDYWGQGTLVTVSS
VL: DIQMTQSPSSLSASVGDRVTITCKASQSVDYDGDSFLNWYQQKPGKAPKLLIYAASNLESGVPSRFSGSGSGTDFTLTISSLQPEDFATYYCNNSNGDPLNFGQGTKVEIKR
B22: huMA79b graft variant, SEQ ID NO: 52 (Fab, name in Kabat numbering, V domains shown)
VH: EVQLVESGGGLVQPGGSLRLSCAASGYTFSSYWIEWVRQAPGKGLEWVGEILPGGGDTNYNEIFKGRFTISADTSKNTAYLQMNSLRAEDTAVYYCTRRVPVYFDYWGQGTLVTVSS
VL: DIQMTQSPSSLSASVGDRVTITCKASQSVDYDGDSFLNWYQQKPGKAPKLLIYAASNLESGVPSRFSGSGSGTDFTLTISSLQPEDFATYYCQPDNEAPRTFGQGTKVEIKR

Biological target: extracellular domain of human CD79b (huCD79becd) (human) (UniProt P40259)
Test: phage selection on plate-bound antigen

Row | Binder | binding
1 | B1 | binds
2 | B2 | binds
3 | B3 | binds
4 | B4 | binds
5 | B5 | binds
6 | B6 | binds
7 | B7 | binds
8 | B8 | binds
9 | B9 | binds
10 | B10 | binds
11 | B11 | binds
12 | B12 | binds
13 | B13 | binds
14 | B14 | binds
15 | B15 | binds
16 | B16 | binds
17 | B17 | binds
18 | B18 | binds
19 | B19 | binds
20 | B20 | binds
21 | B21 | binds
22 | B22 | binds
